Data taken from article PMC5007442.
These are yes or no findings as the source states them, for the method shown. Binding seen in cells or lysates may run through a third protein. Some entries that bind do so weakly or less than the wild type. Tags and fused reporters may be left off the sequences shown.

Biological target: T1, HA-CYLD (UniProt Q9NQC7)
T1 sequence: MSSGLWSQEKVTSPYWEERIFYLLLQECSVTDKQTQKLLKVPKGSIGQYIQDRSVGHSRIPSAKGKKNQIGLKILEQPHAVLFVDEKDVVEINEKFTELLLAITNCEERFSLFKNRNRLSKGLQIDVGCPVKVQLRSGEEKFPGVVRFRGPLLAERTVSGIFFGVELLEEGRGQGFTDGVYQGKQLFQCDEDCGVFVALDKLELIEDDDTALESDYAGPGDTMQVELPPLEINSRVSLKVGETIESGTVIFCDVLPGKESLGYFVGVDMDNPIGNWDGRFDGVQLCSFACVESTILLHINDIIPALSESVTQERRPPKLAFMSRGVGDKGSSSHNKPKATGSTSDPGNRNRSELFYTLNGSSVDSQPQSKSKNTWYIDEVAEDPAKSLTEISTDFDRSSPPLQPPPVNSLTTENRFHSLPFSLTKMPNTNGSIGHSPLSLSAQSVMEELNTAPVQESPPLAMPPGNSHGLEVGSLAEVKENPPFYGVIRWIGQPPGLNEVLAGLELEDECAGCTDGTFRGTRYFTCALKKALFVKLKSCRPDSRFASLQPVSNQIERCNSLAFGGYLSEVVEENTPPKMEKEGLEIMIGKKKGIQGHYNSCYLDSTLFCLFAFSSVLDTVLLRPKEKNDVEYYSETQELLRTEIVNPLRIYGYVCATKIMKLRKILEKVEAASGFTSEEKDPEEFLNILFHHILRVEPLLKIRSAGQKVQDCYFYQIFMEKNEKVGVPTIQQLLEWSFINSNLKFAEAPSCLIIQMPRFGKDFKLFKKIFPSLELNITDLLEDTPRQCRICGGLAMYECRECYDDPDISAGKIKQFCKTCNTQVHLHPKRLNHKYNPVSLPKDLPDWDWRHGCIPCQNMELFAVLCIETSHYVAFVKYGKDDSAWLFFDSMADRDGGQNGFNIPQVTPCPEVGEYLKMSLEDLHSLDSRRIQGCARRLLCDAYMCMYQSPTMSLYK
Test: co-IP; HA-CYLD immunoprecipitated from CpT-treated HEK-293 T cells transfected with HA-CYLD and GFP-p53; blot with anti-GFP; interaction enhanced after DNA damage

For GFP-p53 (from UniProt P04637 1-393), the binding was “binds”.
